The results are deposited in PubChem (AID504749; NCATS, 2011).

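Malaria parasite (P. falciparum) lines kept in red blood cells; parasite DNA is measured by SYBR Green fluorescence after lysis, 72 h after compound addition.
Each compound was titrated across a series from about 0.000037 to 29 µM.
The number is the fitted AC50, the concentration giving a half-maximal change in signal; a lower value means higher potency, whether the curve shows a decrease or an increase.
Calls follow the curve class and fit quality: every row here is inconclusive, covering signal-raising curves and weak, poorly fitted, partial or highest-dose-only inhibition curves.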

Values are in nM.
All entries here are filed as inconclusive.
These entries are mostly ones the record files as inconclusive; other results of the assay are not listed here.
Potencies fitted to partial, single-point or poorly fitting curves are rough.

SMILES,condition,potency (nM),curve
O=NCc1ccc([N+](=O)[O-])o1,PC26,10690,"inhibitor, single point"
O=NCc1ccc([N+](=O)[O-])o1,P94_40,17782,"inhibitor, single point"
O=NCc1ccc([N+](=O)[O-])o1,HB3,12589,"inhibitor, single point"
O=NCc1ccc([N+](=O)[O-])o1,CP297,19011,"inhibitor, partial curve, poor fit"
O=NCc1ccc([N+](=O)[O-])o1,TAB165,17782,"inhibitor, single point"
O=NCc1ccc([N+](=O)[O-])o1,3D7,8912,"inhibitor, single point"
O=NCc1ccc([N+](=O)[O-])o1,TAB113,17782,"inhibitor, single point"
O=NCc1ccc([N+](=O)[O-])o1,CP269,13459,"inhibitor, partial curve, poor fit"
O=NCc1ccc([N+](=O)[O-])o1,AS120,11220,"inhibitor, single point"
O=NCc1ccc([N+](=O)[O-])o1,DIV17,19011,"inhibitor, single point"
CO[C@H]1[C@H](O[C@H]2O[C@@H](C)[C@@H](O[C@@H]3C[C@](C)(O)[C@H](O)[C@H](C)O3)[C@@H](N(C)C)[C@@H]2O)[C@@H](CC=O)C[C@@H](C)[C@@H](O[C@H]2CC[C@H](N(C)C)[C@H](C)O2)/C=C\C=C/C[C@@H](C)OC(=O)C[C@H]1O,parasite line B,10000,"inhibitor, single point"
CO[C@H]1[C@H](O[C@H]2O[C@@H](C)[C@@H](O[C@@H]3C[C@](C)(O)[C@H](O)[C@H](C)O3)[C@@H](N(C)C)[C@@H]2O)[C@@H](CC=O)C[C@@H](C)[C@@H](O[C@H]2CC[C@H](N(C)C)[C@H](C)O2)/C=C\C=C/C[C@@H](C)OC(=O)C[C@H]1O,GB4,4548,"inhibitor, partial curve, poor fit"
CO[C@H]1[C@H](O[C@H]2O[C@@H](C)[C@@H](O[C@@H]3C[C@](C)(O)[C@H](O)[C@H](C)O3)[C@@H](N(C)C)[C@@H]2O)[C@@H](CC=O)C[C@@H](C)[C@@H](O[C@H]2CC[C@H](N(C)C)[C@H](C)O2)/C=C\C=C/C[C@@H](C)OC(=O)C[C@H]1O,P93_24,3162,"inhibitor, partial curve, poor fit"
CO[C@H]1[C@H](O[C@H]2O[C@@H](C)[C@@H](O[C@@H]3C[C@](C)(O)[C@H](O)[C@H](C)O3)[C@@H](N(C)C)[C@@H]2O)[C@@H](CC=O)C[C@@H](C)[C@@H](O[C@H]2CC[C@H](N(C)C)[C@H](C)O2)/C=C\C=C/C[C@@H](C)OC(=O)C[C@H]1O,CP260,2818,"inhibitor, partial curve"
CO[C@H]1[C@H](O[C@H]2O[C@@H](C)[C@@H](O[C@@H]3C[C@](C)(O)[C@H](O)[C@H](C)O3)[C@@H](N(C)C)[C@@H]2O)[C@@H](CC=O)C[C@@H](C)[C@@H](O[C@H]2CC[C@H](N(C)C)[C@H](C)O2)/C=C\C=C/C[C@@H](C)OC(=O)C[C@H]1O,CP297,5103,"inhibitor, single point"
CO[C@H]1[C@H](O[C@H]2O[C@@H](C)[C@@H](O[C@@H]3C[C@](C)(O)[C@H](O)[C@H](C)O3)[C@@H](N(C)C)[C@@H]2O)[C@@H](CC=O)C[C@@H](C)[C@@H](O[C@H]2CC[C@H](N(C)C)[C@H](C)O2)/C=C\C=C/C[C@@H](C)OC(=O)C[C@H]1O,CP215,8087,"inhibitor, single point"
CO[C@H]1[C@H](O[C@H]2O[C@@H](C)[C@@H](O[C@@H]3C[C@](C)(O)[C@H](O)[C@H](C)O3)[C@@H](N(C)C)[C@@H]2O)[C@@H](CC=O)C[C@@H](C)[C@@H](O[C@H]2CC[C@H](N(C)C)[C@H](C)O2)/C=C\C=C/C[C@@H](C)OC(=O)C[C@H]1O,CP194,2869,"inhibitor, partial curve, poor fit"
CO[C@H]1[C@H](O[C@H]2O[C@@H](C)[C@@H](O[C@@H]3C[C@](C)(O)[C@H](O)[C@H](C)O3)[C@@H](N(C)C)[C@@H]2O)[C@@H](CC=O)C[C@@H](C)[C@@H](O[C@H]2CC[C@H](N(C)C)[C@H](C)O2)/C=C\C=C/C[C@@H](C)OC(=O)C[C@H]1O,7G8,7943,"inhibitor, single point"
CO[C@H]1[C@H](O[C@H]2O[C@@H](C)[C@@H](O[C@@H]3C[C@](C)(O)[C@H](O)[C@H](C)O3)[C@@H](N(C)C)[C@@H]2O)[C@@H](CC=O)C[C@@H](C)[C@@H](O[C@H]2CC[C@H](N(C)C)[C@H](C)O2)/C=C\C=C/C[C@@H](C)OC(=O)C[C@H]1O,CP286,2512,"inhibitor, partial curve"
CO[C@H]1[C@H](O[C@H]2O[C@@H](C)[C@@H](O[C@@H]3C[C@](C)(O)[C@H](O)[C@H](C)O3)[C@@H](N(C)C)[C@@H]2O)[C@@H](CC=O)C[C@@H](C)[C@@H](O[C@H]2CC[C@H](N(C)C)[C@H](C)O2)/C=C\C=C/C[C@@H](C)OC(=O)C[C@H]1O,CP217,3981,"inhibitor, single point"
CO[C@H]1[C@H](O[C@H]2O[C@@H](C)[C@@H](O[C@@H]3C[C@](C)(O)[C@H](O)[C@H](C)O3)[C@@H](N(C)C)[C@@H]2O)[C@@H](CC=O)C[C@@H](C)[C@@H](O[C@H]2CC[C@H](N(C)C)[C@H](C)O2)/C=C\C=C/C[C@@H](C)OC(=O)C[C@H]1O,CP262,2279,"inhibitor, partial curve"
CO[C@H]1[C@H](O[C@H]2O[C@@H](C)[C@@H](O[C@@H]3C[C@](C)(O)[C@H](O)[C@H](C)O3)[C@@H](N(C)C)[C@@H]2O)[C@@H](CC=O)C[C@@H](C)[C@@H](O[C@H]2CC[C@H](N(C)C)[C@H](C)O2)/C=C\C=C/C[C@@H](C)OC(=O)C[C@H]1O,CP291,4548,"inhibitor, partial curve, poor fit"
CO[C@H]1[C@H](O[C@H]2O[C@@H](C)[C@@H](O[C@@H]3C[C@](C)(O)[C@H](O)[C@H](C)O3)[C@@H](N(C)C)[C@@H]2O)[C@@H](CC=O)C[C@@H](C)[C@@H](O[C@H]2CC[C@H](N(C)C)[C@H](C)O2)/C=C\C=C/C[C@@H](C)OC(=O)C[C@H]1O,CP335,5103,"inhibitor, partial curve"
CO[C@H]1[C@H](O[C@H]2O[C@@H](C)[C@@H](O[C@@H]3C[C@](C)(O)[C@H](O)[C@H](C)O3)[C@@H](N(C)C)[C@@H]2O)[C@@H](CC=O)C[C@@H](C)[C@@H](O[C@H]2CC[C@H](N(C)C)[C@H](C)O2)/C=C\C=C/C[C@@H](C)OC(=O)C[C@H]1O,CP185,2512,"inhibitor, partial curve"
CO[C@H]1[C@H](O[C@H]2O[C@@H](C)[C@@H](O[C@@H]3C[C@](C)(O)[C@H](O)[C@H](C)O3)[C@@H](N(C)C)[C@@H]2O)[C@@H](CC=O)C[C@@H](C)[C@@H](O[C@H]2CC[C@H](N(C)C)[C@H](C)O2)/C=C\C=C/C[C@@H](C)OC(=O)C[C@H]1O,CP269,3612,"inhibitor, partial curve"
CO[C@H]1[C@H](O[C@H]2O[C@@H](C)[C@@H](O[C@@H]3C[C@](C)(O)[C@H](O)[C@H](C)O3)[C@@H](N(C)C)[C@@H]2O)[C@@H](CC=O)C[C@@H](C)[C@@H](O[C@H]2CC[C@H](N(C)C)[C@H](C)O2)/C=C\C=C/C[C@@H](C)OC(=O)C[C@H]1O,CP305,3612,"inhibitor, single point"

For reference, 2 entries once more:

SMILES	condition	potency (nM)	curve
O=NCc1ccc([N+](=O)[O-])o1	CP297	19011	inhibitor, partial curve, poor fit
CO[C@H]1[C@H](O[C@H]2O[C@@H](C)[C@@H](O[C@@H]3C[C@](C)(O)[C@H](O)[C@H](C)O3)[C@@H](N(C)C)[C@@H]2O)[C@@H](CC=O)C[C@@H](C)[C@@H](O[C@H]2CC[C@H](N(C)C)[C@H](C)O2)/C=C\C=C/C[C@@H](C)OC(=O)C[C@H]1O	7G8	7943	inhibitor, single point